Source: ChEMBL document CHEMBL3988442, “University of Dundee, Small-Polar-MMV Screening Library” (2021).

The chains behind the UniProt entries cited, without tags or fusion partners.
UniProt E9BF75, entry or part of it: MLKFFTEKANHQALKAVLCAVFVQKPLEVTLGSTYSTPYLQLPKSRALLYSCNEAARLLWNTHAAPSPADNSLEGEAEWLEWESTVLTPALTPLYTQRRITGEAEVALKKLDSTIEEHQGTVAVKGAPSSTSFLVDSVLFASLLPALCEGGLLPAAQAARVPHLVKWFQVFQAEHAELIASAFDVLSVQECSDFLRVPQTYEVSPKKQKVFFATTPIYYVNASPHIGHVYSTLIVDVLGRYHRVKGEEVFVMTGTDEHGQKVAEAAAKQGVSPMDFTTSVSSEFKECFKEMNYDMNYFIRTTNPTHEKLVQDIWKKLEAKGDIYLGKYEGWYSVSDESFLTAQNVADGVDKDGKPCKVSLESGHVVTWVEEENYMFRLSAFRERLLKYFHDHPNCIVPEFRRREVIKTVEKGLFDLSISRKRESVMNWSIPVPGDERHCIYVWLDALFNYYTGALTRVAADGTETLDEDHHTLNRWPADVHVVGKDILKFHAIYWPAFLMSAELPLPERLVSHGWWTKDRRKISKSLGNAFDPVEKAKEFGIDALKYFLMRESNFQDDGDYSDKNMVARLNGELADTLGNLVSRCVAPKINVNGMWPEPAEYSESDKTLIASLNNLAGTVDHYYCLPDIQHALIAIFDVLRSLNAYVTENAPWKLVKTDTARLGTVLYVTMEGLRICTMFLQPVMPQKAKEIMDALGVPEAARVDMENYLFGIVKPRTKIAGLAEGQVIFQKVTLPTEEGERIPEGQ

All values are in %.
The record does not define 0% and 100%; most values in the screen are far below 50% and negative numbers occur (in some assays of this library far below -100).
This is an unselected part of the compounds tested.

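Methionyl-tRNA synthetase (putative), Leishmania donovani (UniProt E9BF75). Primary screen of methionyl-tRNA synthetase; the read-out is not stated. The test concentration is not given. Values are per cent inhibition. About 68,000 compounds were tested under these conditions; 0.035% (about 24) showed 50% or more at least once.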

| SMILES | inhibition |
|---|---|
| `Cc1cccc(C(C)C)c1NC(=O)NCCN(C(C)C)C(C)C` | 14.63% |
| `O=C(NC1CCC1)[C@@H]1C[C@@H]2CCN(Cc3ccncc3)C[C@H]2O1` | 15.48% |
| `CN(C)[C@@H]1CCN(S(=O)(=O)C2CC2)[C@H]1Cc1ccccc1` | 3.279% |
| `CN1CCN(c2ccc(C(=O)N3CCCC(c4ncc[nH]4)C3)cc2)CC1` (configuration not stated) | 17.71% |
| `O=C(Cc1ccncc1)N1C[C@H]2CC[C@@H]1CN(Cc1cccnc1)C2` | 0.5333% |
| `Cc1nc(C)n(CC2CCCN2Cc2cnc(C)s2)n1` (configuration not stated) | 12.03% |
| `CNS(=O)(=O)CCNC(=O)[C@@]12CNC[C@@H]1CN(C1CCCC1)C2` | 8.462% |
| `CN(C)C1CCN(C(=O)c2cccc(S(=O)(=O)NCC3(C)COC3)c2)C1` (configuration not stated) | 10% |
| `CC[C@H](C)[C@H](N)C(=O)N1CC(=O)c2sc(Nc3ccc(F)cc3)nc2C1` | 11.89% |
| `COC(=O)c1sc2nc3c(c(C(F)(F)F)c2c1N)CN(C(C)=O)CC3` | 21.74% |
| `CCCNC(=O)c1cc2c(s1)CCN2C(=O)CN(C)C` | -15.27% |
| `O=S(=O)(CCCNCCn1cccn1)c1ccccc1` | 3.254% |
| `Cn1cc(NC(=O)N2CCC(Cc3ccccc3)CC2)ccc1=O` | 11.72% |
| `NC(=O)c1cnn2c1NCC(CNCCCOc1ccccc1F)C2` (configuration not stated) | 17.35% |
| `O=C(NCc1ccccn1)[C@@]12CCO[C@@H]1CCN(C1CCCC1)C2` | 14.99% |
| `c1cnnc(N[C@@H]2CC[C@@H]3CN(Cc4ccc5[nH]ccc5c4)C[C@@H]32)c1` | 17.92% |
| `O=C([C@@H]1CCO[C@@H]2CCN(CC3CC3)C[C@H]21)N1CCCCO1` | 4.323% |
| `Cc1ccc(NC2CCN(C(=O)c3ccncc3)CC2)nn1` | 14.77% |
| `O=C(c1cc2c(Cl)cccc2[nH]1)N1CCN(CCc2ccccn2)CC1` | 9.632% |
| `CCCc1n[nH]c(C2CN(C(=O)c3ccco3)CCO2)n1` (configuration not stated) | 7.874% |
| `CCc1nc(CN2CCCN(C(=O)C(C)n3cncn3)CC2)cs1` (configuration not stated) | 11.74% |
| `CN(Cc1ccsc1)C(=O)Nc1ccc(N2CCCC2)nc1` | 27.32% |
| `O=S(=O)(CC1CC1)c1ncc(CN2CCOCC2)n1CC1CCCO1` (configuration not stated) | 9.363% |
| `O=c1[nH][nH]cc1-c1ccnc(NCCN2CCCC2)n1` | -9.79% |
| `CCc1nnc2n1CCN(c1nc3ccccc3o1)C2` | 5.861% |
| `Fc1ccccc1CN1CCC(c2n[nH]c(C3CC3)n2)CC1` | 10.34% |
| `O=C1CC(NCc2cnc(-c3cccs3)nc2)CN1c1ccccc1` (configuration not stated) | 12.45% |
| `CN(C(=O)Cn1nnnc1C(C)(C)C)c1ccccc1` | 6.97% |
| `Cc1cc(C(=O)N2CCS(=O)(=O)CC2)c(C)o1` | 17.2% |
| `O=C(c1ccncn1)N1CCO[C@H]2[C@@H](OCc3cccnc3)CC[C@@H]21` | 16.32% |
| `CSc1cccc(NC(=O)Nc2c(O)oc3ccccc3c2=O)c1` | 8.782% |
| `CC(COc1ccc(F)cc1F)NC(=O)NCCN1CCOCC1` (configuration not stated) | 15.49% |
| `CCC(CC)N1CCC(c2[nH]ncc2S(C)(=O)=O)C1` (configuration not stated) | 16.27% |
| `Cc1cc(C)c(CNC(=O)N2CCN(c3nccs3)CC2)c(=O)[nH]1` | 12.63% |
| `O=C(NCc1cccnc1OCC(F)(F)F)N1CCOCC1` | 4.676% |
| `CCc1nsc(N2CCCN(C(=O)c3ccc(CC)o3)CC2)n1` | 12.64% |
| `CS(=O)(=O)CCN1CCSCC1c1ccc(Cl)cc1` (configuration not stated) | 17.33% |
| `COc1ccc(C(=O)NCCNC(=O)c2cncnc2C)cc1` | -1.928% |
| `COc1cccc(CCNC(=O)CCS(=O)(=O)C2CCCC2)c1` | 14.24% |
| `Cc1cc(-c2ccnn2C)nc(C2CCCN(S(C)(=O)=O)C2)n1` (configuration not stated) | 10.31% |
| `CCOC(=O)c1n[nH]cc1-c1cncn1CC(C)n1nc(C)cc1C` (configuration not stated) | 14.84% |
| `CN(CC(=O)N1CCN(c2cnccn2)CC1)c1ccc(Cl)cn1` | 9.645% |
| `COc1c(F)cc(F)cc1-c1nc2c([nH]1)CCNC2` | 3.846% |
| `Cc1ccc(C(=O)N2CCN(Cc3ccccc3)CC2)n1C` | 11.27% |
| `COCc1nn(C(C)C)c2c1CCN(Cc1ccc(C)o1)C2` | 16.25% |
| `O=C(CC1CCN(c2ncnc3ccccc23)CC1)N1CCCC1` | 4.57% |
| `CC(NCCN1CCN(C(=O)C2CCCC2)CC1)c1cnn(C)c1` (configuration not stated) | 5.013% |
| `CO[C@H]1CCN(C(=O)Cc2ccsc2)[C@@H]2CN(CC3CC3)C[C@H]12` | 15.13% |
| `Fc1ccc(C2CN(c3ncnc4nc[nH]c34)CCO2)cc1` (configuration not stated) | 7.932% |
| `O=C(Nc1nc2c(s1)CN(S(=O)(=O)C1CC1)CC2)c1ccsc1` | 19.83% |
| `COc1ccc(CN(C)C(=O)c2nnc(CN(C)C)o2)cc1` | 6.4% |
| `COc1ccc(C2Nc3cc(Cl)ccc3C3=NCCN32)cc1O` (configuration not stated) | 12.3% |
| `Cc1ccc(CN2Cc3nnn(C)c3C(COCC3CC3)C2)s1` (configuration not stated) | 12.69% |
| `Cc1cnn(CC2CN(Cc3cccc(OC(C)C)c3)CCO2)c1` (configuration not stated) | 21.37% |
| `Cc1cnn(C2CN(Cc3nc(-c4ccccn4)no3)C2)c1` | 27.64% |
| `CNC(=O)NCC(=O)Nc1ccccc1N1CCc2ccccc21` | 11.8% |
| `CN(C)C1CCN(C(=O)C2SCCc3ccccc32)CC1` (configuration not stated) | 10.6% |
| `CCNc1ccnc(-c2ccnc3c2ccn3C)n1` | 3.194% |
| `O=C(C1CCOC1)N1CCc2ncnc(-c3cccnc3)c2CC1` (configuration not stated) | 4.886% |
| `Cc1ccc(CN(CCCN(C)C)Cc2cnc(N(C)C)nc2)o1` | 9.688% |
| `O=C(NCC1CC1)Nc1cnc2cc(Cl)ccc2c1O` | 1.027% |
| `CC(C)c1nccc(CN2CCCC(O)(CN(C)C)CC2)n1` (configuration not stated) | 10.74% |
| `CN(Cc1ccc(Cl)s1)C(=O)Nc1ccc(N(C)C)nc1` | 13.09% |
| `CCc1nc(CCNC(=O)NC2CC2)sc1C` | 13.33% |
| `COCCCN(C)C1CCCN(Cc2noc(C3CC3)n2)C1` (configuration not stated) | 10.06% |
| `Cc1cc(C)c(C(=O)N2CCCC(O)(CN3CCCC3)C2)cc1C` (configuration not stated) | 13.18% |
| `CN1C(=O)CC(C(=O)O)C12CCN(Cc1ccc(Cl)c(F)c1)CC2` (configuration not stated) | -1.37% |
| `O=C(N1CCC(Oc2ccncc2)C1)C1(c2ccccc2F)CC1` (configuration not stated) | 9.409% |
| `Cc1nn(C)c(Cl)c1C1CCCN1Cc1cn2ccsc2n1` (configuration not stated) | 10.08% |
| `O=C(O)[C@H]1C[C@H](C(=O)NC2CC2)CN(Cc2ccc(-c3cc[nH]n3)s2)C1` | 14.76% |
| `CN1Cc2c(C(=O)NCC3CCCO3)ncn2-c2ccccc2S1(=O)=O` (configuration not stated) | 20.25% |
| `Cc1cc(N2CCC3(CCC(=O)N(CC4CC4)C3)CC2)nc(N)n1` | 20.45% |
| `CCN(CC1CCCO1)C(=O)Nc1ccc(F)cc1OC` (configuration not stated) | 7.981% |
| `CSc1ncc(C(=O)NCc2cc3n(n2)CCCN(CC(C)C)C3)cn1` | -1.37% |
| `CCN1CCN(Cc2nc(Cc3ccccc3)n[nH]2)CC1` | 18.35% |
| `N[C@@H]1CCN(Cc2ccccc2CS(=O)(=O)c2ccccc2)C[C@H]1O` | 18.77% |
| `O=C1CC(c2ccc(C(=O)O)cc2)c2cnn(Cc3ccco3)c2N1` (configuration not stated) | 18.08% |
| `Cn1cc(CN2CCC(F)(F)C3(CCN(c4cccnc4)C3)C2)cn1` (configuration not stated) | 10.38% |
| `O=c1ccc(-n2ccnc2)nn1CCNS(=O)(=O)c1ccc(Cl)s1` | 12.23% |
| `Nc1ccnc(N2CCCC(CO)(Cc3cccc(Cl)c3)C2)n1` (configuration not stated) | 16.62% |
| `O=C(CCc1ccsc1)NCc1ccnc(OC2CCOCC2)c1` | 12.01% |
| `Cc1cncc(C2CCN(Cc3ccncc3)CC2)n1` | 11.05% |
| `CCN1CC(C(=O)NCCn2cccc2)CCC1=O` (configuration not stated) | 19.38% |
| `CC1(C)CN(C(=O)c2ccc3nncn3c2)CCS1` | 15.79% |

The last 8 entries again:

SMILES	inhibition
O=C1CC(c2ccc(C(=O)O)cc2)c2cnn(Cc3ccco3)c2N1 (configuration not stated)	18.08%
Cn1cc(CN2CCC(F)(F)C3(CCN(c4cccnc4)C3)C2)cn1 (configuration not stated)	10.38%
O=c1ccc(-n2ccnc2)nn1CCNS(=O)(=O)c1ccc(Cl)s1	12.23%
Nc1ccnc(N2CCCC(CO)(Cc3cccc(Cl)c3)C2)n1 (configuration not stated)	16.62%
O=C(CCc1ccsc1)NCc1ccnc(OC2CCOCC2)c1	12.01%
Cc1cncc(C2CCN(Cc3ccncc3)CC2)n1	11.05%
CCN1CC(C(=O)NCCn2cccc2)CCC1=O (configuration not stated)	19.38%
CC1(C)CN(C(=O)c2ccc3nncn3c2)CCS1	15.79%